According to publication PMC4703368, “A Conserved Interaction between a C-Terminal Motif in Norovirus VPg and the HEAT-1 Domain of eIF4G Is Essential for Translation Initiation” (PLoS Pathogens, 2016):
Results are given in words; binding and its absence hold for the method and conditions named. In cells and extracts the contact can be indirect. Some binding calls cover weakened binding; strength is not graded here.

The chains behind the UniProt entries cited, without tags or fusion partners.
UniProt P29341: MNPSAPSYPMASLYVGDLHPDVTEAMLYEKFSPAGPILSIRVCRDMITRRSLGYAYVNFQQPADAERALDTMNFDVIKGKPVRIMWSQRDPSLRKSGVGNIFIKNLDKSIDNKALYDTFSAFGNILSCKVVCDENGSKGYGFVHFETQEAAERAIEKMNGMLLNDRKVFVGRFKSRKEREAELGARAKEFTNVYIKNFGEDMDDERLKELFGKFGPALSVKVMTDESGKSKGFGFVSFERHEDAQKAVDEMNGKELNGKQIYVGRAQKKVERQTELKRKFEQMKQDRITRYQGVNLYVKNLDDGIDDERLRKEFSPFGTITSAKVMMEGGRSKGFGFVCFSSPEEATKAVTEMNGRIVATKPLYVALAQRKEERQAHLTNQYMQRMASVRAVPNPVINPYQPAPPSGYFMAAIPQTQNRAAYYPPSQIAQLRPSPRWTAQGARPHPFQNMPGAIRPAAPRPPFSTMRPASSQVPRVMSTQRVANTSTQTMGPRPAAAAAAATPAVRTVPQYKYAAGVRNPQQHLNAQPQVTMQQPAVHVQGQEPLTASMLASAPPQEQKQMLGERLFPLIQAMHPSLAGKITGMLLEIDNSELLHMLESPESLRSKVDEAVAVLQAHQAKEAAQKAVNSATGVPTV
UniProt O70194: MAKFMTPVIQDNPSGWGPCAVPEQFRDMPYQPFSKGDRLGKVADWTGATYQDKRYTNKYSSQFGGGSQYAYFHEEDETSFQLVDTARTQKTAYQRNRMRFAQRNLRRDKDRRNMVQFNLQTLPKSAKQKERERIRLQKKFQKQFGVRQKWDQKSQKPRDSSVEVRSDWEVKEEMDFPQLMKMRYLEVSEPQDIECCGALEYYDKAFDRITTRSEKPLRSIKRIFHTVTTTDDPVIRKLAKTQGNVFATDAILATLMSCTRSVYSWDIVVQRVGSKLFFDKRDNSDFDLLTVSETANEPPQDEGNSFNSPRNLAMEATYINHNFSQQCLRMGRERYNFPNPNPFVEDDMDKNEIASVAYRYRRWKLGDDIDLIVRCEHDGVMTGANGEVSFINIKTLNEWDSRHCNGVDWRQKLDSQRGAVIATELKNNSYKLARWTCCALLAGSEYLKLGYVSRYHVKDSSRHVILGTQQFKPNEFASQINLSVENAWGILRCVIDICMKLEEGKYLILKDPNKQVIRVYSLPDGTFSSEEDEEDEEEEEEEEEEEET
UniProt P60843: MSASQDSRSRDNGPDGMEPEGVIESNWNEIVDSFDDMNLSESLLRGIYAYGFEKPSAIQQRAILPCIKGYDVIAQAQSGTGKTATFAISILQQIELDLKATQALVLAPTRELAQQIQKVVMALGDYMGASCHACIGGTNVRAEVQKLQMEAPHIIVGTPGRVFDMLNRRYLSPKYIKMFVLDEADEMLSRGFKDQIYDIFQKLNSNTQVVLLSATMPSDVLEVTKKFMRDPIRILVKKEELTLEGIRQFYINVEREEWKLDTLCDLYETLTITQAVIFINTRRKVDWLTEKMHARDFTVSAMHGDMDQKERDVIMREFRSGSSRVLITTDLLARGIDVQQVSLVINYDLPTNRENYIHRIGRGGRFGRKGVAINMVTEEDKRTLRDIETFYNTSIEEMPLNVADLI
UniProt P63073: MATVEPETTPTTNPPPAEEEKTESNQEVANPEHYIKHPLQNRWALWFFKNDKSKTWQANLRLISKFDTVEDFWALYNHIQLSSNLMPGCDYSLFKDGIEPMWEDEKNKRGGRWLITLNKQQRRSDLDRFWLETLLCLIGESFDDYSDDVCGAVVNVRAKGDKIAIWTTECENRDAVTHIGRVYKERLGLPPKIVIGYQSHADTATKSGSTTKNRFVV
UniProt Q6NZJ6: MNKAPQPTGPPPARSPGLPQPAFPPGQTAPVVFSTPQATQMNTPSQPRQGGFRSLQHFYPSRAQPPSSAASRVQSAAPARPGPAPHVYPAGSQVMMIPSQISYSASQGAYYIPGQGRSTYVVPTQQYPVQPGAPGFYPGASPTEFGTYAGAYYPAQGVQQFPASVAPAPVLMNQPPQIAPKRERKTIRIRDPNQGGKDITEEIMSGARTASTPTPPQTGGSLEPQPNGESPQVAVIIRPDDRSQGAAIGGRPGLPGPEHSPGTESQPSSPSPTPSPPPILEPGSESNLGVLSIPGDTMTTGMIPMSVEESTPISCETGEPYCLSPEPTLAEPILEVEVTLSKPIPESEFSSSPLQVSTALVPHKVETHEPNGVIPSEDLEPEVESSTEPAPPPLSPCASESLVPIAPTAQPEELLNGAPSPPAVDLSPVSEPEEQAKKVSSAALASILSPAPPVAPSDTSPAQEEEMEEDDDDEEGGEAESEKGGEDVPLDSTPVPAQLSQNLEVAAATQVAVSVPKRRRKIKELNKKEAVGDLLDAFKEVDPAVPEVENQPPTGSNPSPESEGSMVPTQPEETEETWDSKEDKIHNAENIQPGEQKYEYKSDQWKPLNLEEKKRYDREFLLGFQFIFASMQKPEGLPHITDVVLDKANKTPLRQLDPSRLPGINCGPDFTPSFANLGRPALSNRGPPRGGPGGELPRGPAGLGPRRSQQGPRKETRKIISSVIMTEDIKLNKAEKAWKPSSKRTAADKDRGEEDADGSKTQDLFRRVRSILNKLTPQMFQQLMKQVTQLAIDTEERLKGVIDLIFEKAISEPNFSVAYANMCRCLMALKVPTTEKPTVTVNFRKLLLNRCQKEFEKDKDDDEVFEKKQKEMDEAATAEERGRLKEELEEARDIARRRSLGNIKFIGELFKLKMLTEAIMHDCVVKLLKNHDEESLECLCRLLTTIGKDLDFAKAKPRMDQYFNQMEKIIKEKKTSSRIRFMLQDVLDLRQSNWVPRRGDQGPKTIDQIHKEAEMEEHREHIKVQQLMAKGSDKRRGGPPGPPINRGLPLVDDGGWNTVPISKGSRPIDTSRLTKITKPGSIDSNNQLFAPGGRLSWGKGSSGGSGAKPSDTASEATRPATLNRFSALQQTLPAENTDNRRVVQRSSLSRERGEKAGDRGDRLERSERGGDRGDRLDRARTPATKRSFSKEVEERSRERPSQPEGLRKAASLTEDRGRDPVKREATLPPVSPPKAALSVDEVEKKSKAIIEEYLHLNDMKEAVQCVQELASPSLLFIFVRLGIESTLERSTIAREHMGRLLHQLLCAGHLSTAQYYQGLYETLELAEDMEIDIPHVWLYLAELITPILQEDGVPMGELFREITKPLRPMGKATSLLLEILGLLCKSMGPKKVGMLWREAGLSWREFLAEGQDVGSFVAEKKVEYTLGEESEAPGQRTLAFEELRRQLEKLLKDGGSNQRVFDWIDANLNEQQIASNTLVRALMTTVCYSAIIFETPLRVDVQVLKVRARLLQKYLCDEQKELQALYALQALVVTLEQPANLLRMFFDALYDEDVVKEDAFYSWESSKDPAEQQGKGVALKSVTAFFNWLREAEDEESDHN

target: mCherry-MNV VPg(102–124) WT (murine norovirus (MNV1)); test: co-IP; RFP-Trap_A agarose beads on lysates of transduced BV2 cells (10 mM Tris-HCl pH 7.5, 150 mM NaCl, 0.5% NP40, 0.5 mM EDTA), 2 h at 4°C; western blot

Row | Substance | binding
1 | PABP (endogenous, BV2 cells) (from UniProt P29341 1-636) | binds
2 | eIF3D (endogenous, BV2 cells) (from UniProt O70194 1-548) | binds
3 | eIF4A (endogenous, BV2 cells) (from UniProt P60843 1-406) | binds
4 | eIF4E (endogenous, BV2 cells) (from UniProt P63073 1-217) | binds
5 | eIF4G (endogenous, BV2 cells) (from UniProt Q6NZJ6 1-1600) | binds
